Here are results for three substances from publication doi:10.1101/2020.08.10.245464.

By UniProt entry, the sequences of proteins in these tests, tags left out.
UniProt P52294, whole entry: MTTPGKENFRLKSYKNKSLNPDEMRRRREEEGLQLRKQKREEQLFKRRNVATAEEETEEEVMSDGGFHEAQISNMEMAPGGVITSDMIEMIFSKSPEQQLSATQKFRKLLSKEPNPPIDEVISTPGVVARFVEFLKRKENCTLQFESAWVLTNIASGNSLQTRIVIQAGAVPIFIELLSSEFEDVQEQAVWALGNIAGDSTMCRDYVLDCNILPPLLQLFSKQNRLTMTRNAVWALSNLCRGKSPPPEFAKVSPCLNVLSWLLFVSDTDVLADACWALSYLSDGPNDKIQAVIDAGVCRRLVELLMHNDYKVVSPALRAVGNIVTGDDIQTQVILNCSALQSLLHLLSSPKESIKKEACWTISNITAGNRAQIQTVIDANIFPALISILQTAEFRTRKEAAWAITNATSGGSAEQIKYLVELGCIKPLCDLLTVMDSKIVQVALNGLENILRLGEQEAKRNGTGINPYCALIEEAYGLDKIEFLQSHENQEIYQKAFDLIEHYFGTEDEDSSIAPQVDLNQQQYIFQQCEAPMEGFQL
UniProt P40763, whole entry: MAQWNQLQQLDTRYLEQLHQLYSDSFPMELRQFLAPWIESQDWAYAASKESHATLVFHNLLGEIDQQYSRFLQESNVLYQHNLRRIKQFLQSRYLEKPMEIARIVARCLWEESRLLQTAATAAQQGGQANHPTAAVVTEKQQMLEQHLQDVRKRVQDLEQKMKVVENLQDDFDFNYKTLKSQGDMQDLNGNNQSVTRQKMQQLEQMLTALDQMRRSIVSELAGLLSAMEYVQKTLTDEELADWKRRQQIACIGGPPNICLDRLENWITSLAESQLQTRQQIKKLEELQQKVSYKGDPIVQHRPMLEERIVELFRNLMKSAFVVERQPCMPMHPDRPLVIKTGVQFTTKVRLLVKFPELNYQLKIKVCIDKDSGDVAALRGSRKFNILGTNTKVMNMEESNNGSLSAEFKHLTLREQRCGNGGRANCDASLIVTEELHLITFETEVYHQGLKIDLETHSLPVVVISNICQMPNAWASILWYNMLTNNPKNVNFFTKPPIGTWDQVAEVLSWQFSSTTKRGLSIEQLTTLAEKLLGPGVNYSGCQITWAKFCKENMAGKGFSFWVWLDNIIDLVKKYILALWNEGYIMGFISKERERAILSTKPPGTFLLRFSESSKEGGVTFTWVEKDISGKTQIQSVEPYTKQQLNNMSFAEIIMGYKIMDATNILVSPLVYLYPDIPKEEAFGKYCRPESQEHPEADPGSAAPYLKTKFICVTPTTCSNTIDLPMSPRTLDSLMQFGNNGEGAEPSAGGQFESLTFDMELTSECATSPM

Holding throughout (assay): co-IP
Assay [1] deals with GFP-VP24 (Ebola virus VP24 fused to GFP) (Zaire ebolavirus (EBOV)) (UniProt Q05322).
For assay [2], the target named is FLAG-tagged karyopherin alpha-1 (Kα1) (UniProt P52294).
A further assay deals with FLAG-tagged STAT3 (UniProt P40763).

These are yes or no findings as the source states them, for the method shown. In cells and extracts the contact can be indirect. Some entries that bind do so weakly or less than the wild type.

As for “FLAG-tagged STAT3 (from UniProt P40763 1-770)”, in assay [1], the binding result is “binds”.
“GFP-VP24 (Ebola virus VP24 fused to GFP) (from UniProt Q05322 1-251)”: the binding result (in assay [2]; with FLAG-tagged STAT3) was “binds” throughout.
Consider “STAT3, endogenous (human cells) (from UniProt P40763 1-770)”, for which the binding result in assay [1] is “binds”.
